Laboratory results: PubChem BioAssay AID1347076 (National Center for Advancing Translational Sciences (NCATS), 2019)
The whole screen tested about 400,000 compounds, of which about 13,000 (3.2%) were called active. The shares of active, inactive and inconclusive entries below differ from those in the screen. The call rests on the fitted dose curve; in most records, active means well fitted cell-killing curve with a large enough effect; inconclusive means small, poorly fitted or top-dose-only effect, or effect the other way; inactive means flat fitted curve, though single readings scatter. Potencies beside an inconclusive call are fits to weak or partial responses and may not hold up.

Test: qHTS assay for MDR1-selective chemotherapeutics: Primary screen using the drug-selected MDR subline cells KB-V1; further: nearly all actives have a fitted effect of over 60% in size
Settings: KB-V1 MDR cells viability, CellTiter-Glo, 72 h; activity change, negative = cytotoxicity: at 46.1 µM (top of the series)
Procedure, shortened: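 KB-V1, DMEM (no phenol red) + 10% FBS; cpd pin-transferred, titration series; 72 h, 37 degrees C; CellTiter-Glo, luminescence. Data normalized, curve-fit.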
On the % scale 0 is the no-effect control and ±100 the full control effect; potency means the concentration at half of the fitted maximal effect.

Row | SMILES | Potency | activity change, negative = cytotoxicity
1 | COc1ccc(CCNC(=O)CSC(=O)c2ccccc2)cc1OC | inconclusive: 29.1 µM [rising, single point] | –
2 | Cn1cc(Cl)c(-c2nc3ccccc3[nH]2)n1 | – | inactive: -2.91%
3 | COc1ccc(-c2cn(CCC(=O)O)c(C)n2)cc1 | inconclusive: 23.1 µM [rising, single point] | –
4 | FC(F)(F)c1ccnc(Sc2n[nH]c(C(F)(F)F)n2)c1 | – | inactive: -6.25%
5 | O=C(NNC(=O)c1ccncc1)Nc1cc(Cl)ccc1Cl | inconclusive: 10.3 µM [rising, partial curve, poor fit] | –
6 | O=C1C=C(c2ccc(Oc3ccccc3)cc2)C[C@@H](c2ccc3c(c2)OCO3)C1 | – | inactive: -5.51%
7 | COc1ccc(OC)c(NC(=O)c2cc3c(=O)oc4ccccc4c3s2)c1 | inconclusive: 7.31 µM [rising, partial curve] | –
8 | Cc1ccc(S(=O)(=O)N2CCN(S(=O)(=O)N(C)C)CC2)c(C)c1 | inconclusive: 23.1 µM [cytotoxic, single point] | –
9 | CCCCNC(=O)c1onc(CSc2cccc(OC)c2)c1C(=O)NCCCC | inconclusive: 29.1 µM [rising, single point] | –
10 | CC(C)(C)C(=O)CSc1ncnc2c1cnn2-c1ccccc1 | inconclusive: 29.1 µM [cytotoxic, partial curve, poor fit] | –
11 | CC(=O)Nc1ccc(NC(=O)CSc2ncc(C(=O)Nc3ccc(Cl)cc3)c(=O)n2C)cc1 | – | inactive: 18.8%
12 | CCC(=O)N(CCC(c1ccccc1)c1ccco1)Cc1cccs1 (centres undefined) | inconclusive: 29.1 µM [cytotoxic, single point] | –
13 | Cc1c(C(=O)NCCC2=CCCCC2)sc2ncnc(N3CCCCC3C)c12 (centres undefined) | – | inactive: -9.17%
14 | CC1CCN(CC(O)COCCC23CC4CC(CC(C4)C2)C3)CC1 (centres undefined) | inconclusive: 29.1 µM [cytotoxic, single point] | –
15 | CC1CCCN(C(c2ccccc2)c2sc3ncnn3c2O)C1 (centres undefined) | inconclusive: 29.1 µM [rising, partial curve, poor fit] | –
16 | COc1cccc(NC(=O)C2C3CCC4C(CCC32)C4(Cl)Cl)c1 (centres undefined) | active: 11.6 µM | –
17 | O=C(O)c1cccc(-c2ccc(/C=C3/SC(=Nc4ccccc4)N(Cc4cccnc4)C3=O)o2)c1 | – | inactive: 0%
18 | COc1cc(NC(=O)NC2Cc3ccccc3C2)cc(OC)c1 | – | inactive: 15.8%
19 | CCc1ccc(N2CC(C(=O)OCC(=O)N(CC)c3c(N)n(Cc4ccccc4)c(=O)[nH]c3=O)CC2=O)cc1 (centres undefined) | – | inactive: 39.2%
20 | CS/C(=N\S(=O)(=O)c1cccs1)Nc1ccc(N2CCOCC2)cc1 | inconclusive: 18.4 µM [cytotoxic, partial curve, poor fit] | –
21 | CC(C)N1CCc2c(sc(NC(=O)c3ccc(C(=O)c4ccccc4)cc3)c2C(N)=O)C1 | – | inactive: -21%
22 | O=C1Nc2cccnc2N(C(=O)CCl)c2ccccc21 | active: 16.4 µM | –
23 | CC(=O)Nc1ccc(NC(=O)C(C)OC(=O)c2ccc(S(=O)(=O)N3CCCCCC3)cc2)cc1 (centres undefined) | inconclusive: 16.4 µM [rising, single point] | –
24 | COc1cccc(/C(O)=C2\C(=O)C(=O)N(c3ccccn3)C2c2cccc(OC)c2OC)c1 (centres undefined) | active: 23.1 µM | –
25 | CC(C)CC(N)c1csc(NC(=O)C(c2ccccc2)c2ccccc2)n1 (centres undefined) | – | inactive: 0%

Row | SMILES | Potency | activity change, negative = cytotoxicity
26 | Cc1ccccc1S(=O)(=O)Cc1ccc(C(=O)NCCCN(C)Cc2ccccc2)o1 | inconclusive: 2.91 µM [cytotoxic, partial curve, poor fit] | –
27 | O=C(Nc1ccnn1C1CCN(Cc2cc(Cl)ccc2O)CC1)C1CC1 | – | inactive: -15%
28 | c1ccc2c(c1)c1c(c3ccccc32)CN2CCCC2C1 (centres undefined) | active: 16.4 µM | –
29 | CCOC(=O)CNC(c1ccccc1)c1cc(Br)ccc1NC(=O)CCN1CCOCC1 (centres undefined) | inconclusive: 20.6 µM [cytotoxic, single point] | –
30 | COc1ccccc1CCNC(=O)CN1C(=O)c2ccccc2S1(=O)=O | inconclusive: 29.1 µM [rising, partial curve, poor fit] | –
31 | CC(C)C[C@H](NC(=O)c1nc[nH]c1C(=O)N[C@@H](CCCCNC(=O)OC(C)(C)C)C(=O)OC(C)(C)C)C(=O)OC(C)(C)C | inconclusive: 29.1 µM [cytotoxic, single point] | –
32 | COc1ccc(OC)c2[nH]c(=O)c(CCNC(=O)c3ccc(Br)o3)cc12 | inconclusive: 1.3 µM [cytotoxic, full curve, poor fit] | –
33 | CON(c1nc(N(C)C)nc(N(C)C)n1)S(=O)(=O)c1ccccc1Cl | inconclusive: 23.1 µM [cytotoxic, partial curve, poor fit] | –
34 | CCn1c(SCC(=O)Nc2cc(OC)c(OC)c(OC)c2)nnc1-c1cccs1 | inconclusive: 29.1 µM [cytotoxic, single point] | –
35 | N=C1/C(=C/c2ccc(OCc3ccccc3)cc2)C(=O)N=C2SC(CC(=O)N3CCOCC3)=NN12 | inconclusive: 18.4 µM [rising, single point] | –
36 | O=C(COc1ccc([N+](=O)[O-])cc1)Nc1cccnc1 | – | inactive: 2.68%
37 | COc1ccc(OC)c(C2=Nn3c(nnc3-c3ccncc3)SC2)c1 | – | inactive: -5.19%
38 | O=C(O)c1ccc(N2C(=O)CCCC2=O)cc1 | inconclusive: 29.1 µM [rising, single point] | –
39 | C=CCNc1scc(-c2ccccc2)[n+]1CC=C | – | inactive: 8.94%
40 | O=C(O)c1ccc2c(c1)ncn2-c1ccc(F)c(F)c1 | inconclusive: 29.1 µM [rising, single point] | –
41 | CCN(CC)C(=O)CSc1nc(N)c2c3c(sc2n1)CC(C)CC3 (centres undefined) | inconclusive: 29.1 µM [cytotoxic, single point] | –
42 | CCOC(=O)c1c(C)[nH]c(C(=O)N/N=C\c2ccccc2Cl)c1C | inconclusive: 7.31 µM [cytotoxic, partial curve] | –
43 | CCCCOc1[nH]c2nc(-c3ccco3)n(Cc3ccco3)c(=N)c2c1C#N | inconclusive: 3.26 µM [cytotoxic, full curve] | –
44 | COc1ccc(NC(=O)CSc2nnc(C3CCCCC3)n2N)c(OC)c1 | – | inactive: -4.41%
45 | COc1ccccc1-c1sc2cc3c(cc2c1C#CCO)OCO3 | – | inactive: 3.11%
46 | O=C(CN1C(=O)C2CC=CCC2C1=O)Nc1ccc(OC(F)(F)F)cc1 (centres undefined) | inconclusive: 29.1 µM [rising, single point] | –
47 | CN(Cc1c(F)cccc1Cl)C(=O)c1ccc2ccccc2n1 | – | inactive: -11.9%
48 | O=C(C1CCCCC1)N1C[C@H](n2cc(C3CC3)nn2)[C@@H](O)C[C@@H]1c1ccccc1 | – | inconclusive: 99.3%
49 | Cc1cccc(NC(=O)/C(C#N)=C/c2ccc(Cl)cc2)n1 | – | inactive: 8.33%
50 | OC(c1ccccc1)(c1nc(-c2ccc(F)c(Cl)c2)cs1)C(F)(F)F (centres undefined) | – | inactive: 5.17%

Some of the entries so far, tab-delimited.
Row	SMILES	Potency	activity change, negative = cytotoxicity
49	Cc1cccc(NC(=O)/C(C#N)=C/c2ccc(Cl)cc2)n1	–	inactive: 8.33%
50	OC(c1ccccc1)(c1nc(-c2ccc(F)c(Cl)c2)cs1)C(F)(F)F (centres undefined)	–	inactive: 5.17%

Later entries:

Row | SMILES | Potency | activity change, negative = cytotoxicity
51 | COc1ccc(NC(=O)C2=C(C)Nc3ncnn3C2c2ccc(O)cc2)cc1 (centres undefined) | inconclusive: 0.0052 µM [rising, full curve] | –
52 | Cc1ccc(S(=O)(=O)N2[C@@H](c3ccc(Cl)cc3)C(C(=O)O)=CC[C@H]2c2cccc(Cl)c2)cc1 | inconclusive: 29.1 µM [rising, single point] | –
53 | CCC(=O)c1ccc(OCC(=O)N2CCN(c3ccccn3)CC2)cc1 | inconclusive: 16.4 µM [cytotoxic, single point] | –
54 | Cc1ccc(N/C(N)=N/c2nc3c(c(=O)[nH]2)CCCC3)c(C)c1 | – | inactive: 2.46%
55 | C=CCN1C(=O)/C(=C2/Sc3ccc(OC)cc3N2C)SC1=Nc1cccc(O)c1 | – | inactive: -1.94%
56 | COc1ccc(Cn2c(=O)oc3ccccc32)cc1 | – | inactive: 1.97%
57 | COc1ccc(C2CC(c3ccc(Cl)cc3)=NN2C(C)=O)cc1 (centres undefined) | inconclusive: 18.4 µM [cytotoxic, single point] | –
58 | CCOc1ccc(NC(=O)CNC(=O)c2cn(-c3ccccc3OC)c(=O)c3ccccc23)cc1 | inconclusive: 23.1 µM [cytotoxic, partial curve] | –
59 | O=C(O)CCn1nnc(-c2cccs2)n1 | – | inactive: 12.2%
60 | O=c1[nH]nc(SCc2ccccc2Cl)n1-c1ccc2c(c1)OCCO2 | inconclusive: 16.4 µM [cytotoxic, single point] | –
61 | CCN(CC)CCNc1ccc(C)c2sc3ccc(O)cc3c(=O)c12 | active: 4.61 µM | –
62 | CCOCCCNC(=O)/C(C#N)=C/c1cc(OC)c(O)c([N+](=O)[O-])c1 | active: 5.8 µM | –
63 | O=C1CCCc2sc3c(c2N1)CCCCC3 | inconclusive: 29.1 µM [cytotoxic, single point] | –
64 | O=C(NC(=S)NC1CCSC1=O)c1cccc([N+](=O)[O-])c1 (centres undefined) | inconclusive: 32.6 µM [rising, single point] | –
65 | CCOc1ccc2nc(NC(=O)c3cc(=O)c4ccc(C)cc4o3)sc2c1 | inconclusive: 29.1 µM [rising, single point] | –
66 | Cc1ccc(-c2noc(CCCC(=O)N3CCOCC3)n2)cc1 | – | inactive: -13.9%
67 | C/C(=N\NC(=S)NCC(C)(C)C)c1cc(F)cc(F)c1O | inconclusive: 7.31 µM [cytotoxic, partial curve] | –
68 | O=C(Nc1c(F)cccc1F)c1cnc(N2CCN(c3ccccn3)CC2)c2ccccc12 | active: 10.3 µM | –
69 | Cc1nn(CCCC(=O)NCc2ccc(F)cc2)c(=O)c2c1sc1ccccc12 | – | inactive: 3.84%
70 | O=C(NC1CCCCCC1)c1ccccc1-c1ccccc1 | inconclusive: 25.9 µM [cytotoxic, single point] | –
71 | CC(C)(CN1CCN(Cc2ccccc2)CC1)NS(=O)(=O)c1ccc(Cl)cc1 | inconclusive: 5.17 µM [cytotoxic, partial curve] | –
72 | COc1cc2nncc(SC)c2cc1OC | inconclusive: 23.1 µM [cytotoxic, single point] | –
73 | S=c1nc[nH]c2c1sc1nc(-c3ccccc3)c3c(c12)CCCC3 | – | inactive: -9.07%
74 | O[C@@H]1C[C@H](c2ccccc2)N(Cc2cccs2)C[C@H]1n1cc(C2CC2)nn1 | – | inactive: 18.2%

Single values from the entries so far.
In Potency, CCCCNC(=O)c1onc(CSc2cccc(OC)c2)c1C(=O)NCCCC has the entry inconclusive: 29.1 µM [rising, single point]
In Potency, Cc1ccc(S(=O)(=O)N2[C@@H](c3ccc(Cl)cc3)C(C(=O)O)=CC[C@H]2c2cccc(Cl)c2)cc1 has the entry inconclusive: 29.1 µM [rising, single point]

Part of the list above, in CSV form:
Row,SMILES,Potency,"activity change, negative = cytotoxicity"
67,C/C(=N\NC(=S)NCC(C)(C)C)c1cc(F)cc(F)c1O,"inconclusive: 7.31 µM [cytotoxic, partial curve]",–
68,O=C(Nc1c(F)cccc1F)c1cnc(N2CCN(c3ccccn3)CC2)c2ccccc12,active: 10.3 µM,–
